Paper PMC4365034
No constants are given. Whether binding was seen depends on the method and setting. In cells and extracts the contact can be indirect. Some binding calls cover weakened binding; strength is not graded here. Sequences can lack the tags named with a protein.

Protein sequences, listed by entry. Tags and fused reporters are not part of them.
UniProt P03612: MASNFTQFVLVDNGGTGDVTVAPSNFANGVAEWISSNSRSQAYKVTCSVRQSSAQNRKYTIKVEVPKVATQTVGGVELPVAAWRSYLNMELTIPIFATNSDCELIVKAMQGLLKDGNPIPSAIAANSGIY
UniProt P26599: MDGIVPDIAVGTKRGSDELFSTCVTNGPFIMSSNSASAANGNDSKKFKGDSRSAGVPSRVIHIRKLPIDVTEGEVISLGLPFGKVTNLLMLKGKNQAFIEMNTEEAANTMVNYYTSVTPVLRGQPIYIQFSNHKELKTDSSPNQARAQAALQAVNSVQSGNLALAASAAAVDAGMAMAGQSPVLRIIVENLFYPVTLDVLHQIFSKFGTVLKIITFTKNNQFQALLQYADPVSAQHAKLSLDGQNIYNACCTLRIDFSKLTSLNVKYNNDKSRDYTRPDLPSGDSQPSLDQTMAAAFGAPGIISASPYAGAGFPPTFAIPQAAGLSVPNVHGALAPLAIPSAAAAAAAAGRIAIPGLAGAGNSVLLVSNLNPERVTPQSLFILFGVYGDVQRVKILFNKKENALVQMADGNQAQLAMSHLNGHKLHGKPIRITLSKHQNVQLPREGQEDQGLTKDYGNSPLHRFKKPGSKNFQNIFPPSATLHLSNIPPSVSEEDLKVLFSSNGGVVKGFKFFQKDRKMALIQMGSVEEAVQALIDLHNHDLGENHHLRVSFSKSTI

Columns and labels:
[1] = target: T1, GST-SXL (UniProt P19339); assay: pull-down; GST-PTB or GST-SXL as bait; MS2 fusion peptides transcribed and translated in vitro; RNase A 25 ug/ml after translation and 0.5 ug/ml in the pre-incubation, 3 h at 4°C; only the target purified
T1 sequence: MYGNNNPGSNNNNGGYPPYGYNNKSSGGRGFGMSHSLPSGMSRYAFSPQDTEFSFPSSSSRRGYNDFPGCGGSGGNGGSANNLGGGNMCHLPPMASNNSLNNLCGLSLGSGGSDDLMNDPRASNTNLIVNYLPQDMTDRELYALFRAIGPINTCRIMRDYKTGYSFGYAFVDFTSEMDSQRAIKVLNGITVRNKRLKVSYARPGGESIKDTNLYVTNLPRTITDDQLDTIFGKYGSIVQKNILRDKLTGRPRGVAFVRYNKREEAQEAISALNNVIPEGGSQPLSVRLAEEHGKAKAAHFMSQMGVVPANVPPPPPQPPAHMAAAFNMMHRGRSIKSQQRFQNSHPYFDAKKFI

[2] = target: T2, FLAG-Raver1 full-length wild-type (UniProt Q9CW46); assay: co-IP; FLAG-tagged proteins transfected, cells lysed 48 h later; anti-FLAG (Sigma M2) with protein G sepharose, 2 h at 4°C; Western blot against PTB
T2 sequence: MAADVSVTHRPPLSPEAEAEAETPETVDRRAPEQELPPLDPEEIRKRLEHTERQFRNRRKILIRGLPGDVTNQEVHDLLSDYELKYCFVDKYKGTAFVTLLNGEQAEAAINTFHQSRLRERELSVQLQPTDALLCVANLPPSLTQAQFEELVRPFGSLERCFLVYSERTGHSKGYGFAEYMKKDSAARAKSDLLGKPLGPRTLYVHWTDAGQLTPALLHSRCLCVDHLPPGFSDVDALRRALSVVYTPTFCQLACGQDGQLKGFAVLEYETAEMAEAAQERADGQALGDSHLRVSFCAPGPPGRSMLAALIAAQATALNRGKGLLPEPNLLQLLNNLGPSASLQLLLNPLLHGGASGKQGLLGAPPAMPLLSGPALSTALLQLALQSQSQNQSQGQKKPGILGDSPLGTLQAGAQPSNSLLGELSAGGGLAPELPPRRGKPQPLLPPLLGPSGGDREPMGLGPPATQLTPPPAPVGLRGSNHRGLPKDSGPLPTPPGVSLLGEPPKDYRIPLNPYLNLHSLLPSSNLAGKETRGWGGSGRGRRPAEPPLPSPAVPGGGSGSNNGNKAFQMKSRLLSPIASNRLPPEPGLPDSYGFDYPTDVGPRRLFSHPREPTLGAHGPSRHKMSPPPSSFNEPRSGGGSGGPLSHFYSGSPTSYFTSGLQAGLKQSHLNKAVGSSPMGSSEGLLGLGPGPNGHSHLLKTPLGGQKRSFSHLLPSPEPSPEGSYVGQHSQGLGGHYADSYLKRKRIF

| Substance | binding [1] | binding [2] |
| --- | --- | --- |
| MS2 alone (FLAG-MS2) (from UniProt P03612 1-130) | no binding |  |
| PTB (endogenous, lysate of transfected cells) (from UniProt P26599 1-557) |  | binds |
